Measured values published in PubChem BioAssay (Tox21).
Where “and” joins values, the source holds several entries; their conditions need not be identical. Equal entries are not always repeated. Inconclusive results, whose numbers are uncertain, are shown with a selection of clear calls. A potency beside an inconclusive call is a rough fit, not a confirmed value. Calls of active or inactive are those of the source. The call rests on the fitted dose curve; in most records, active means well fitted inhibition curve with a large enough effect in the repeat runs; inconclusive means weak or mixed curves; inactive means no such curve, though single readings can be large or run the other way.

Protein sequences, listed by entry. Tags and fused reporters are not part of them.
UniProt P11712, whole entry, looked up: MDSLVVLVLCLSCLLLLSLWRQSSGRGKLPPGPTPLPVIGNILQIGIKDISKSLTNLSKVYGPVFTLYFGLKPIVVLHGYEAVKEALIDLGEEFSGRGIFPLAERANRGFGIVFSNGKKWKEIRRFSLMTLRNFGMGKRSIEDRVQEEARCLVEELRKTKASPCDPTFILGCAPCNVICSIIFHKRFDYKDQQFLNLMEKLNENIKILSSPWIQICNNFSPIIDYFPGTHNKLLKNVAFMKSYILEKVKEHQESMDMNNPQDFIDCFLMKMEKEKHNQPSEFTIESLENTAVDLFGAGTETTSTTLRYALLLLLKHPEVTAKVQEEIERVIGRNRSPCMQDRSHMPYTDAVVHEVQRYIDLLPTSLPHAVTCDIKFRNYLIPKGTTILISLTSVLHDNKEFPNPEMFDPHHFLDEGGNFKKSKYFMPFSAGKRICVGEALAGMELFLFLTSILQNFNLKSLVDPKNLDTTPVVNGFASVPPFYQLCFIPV

Each compound was assayed against Cytochrome P450 2C9 (Homo sapiens) (UniProt P11712) (assay: Cytochrome P450 Family 2 Subfamily C Member 9 (CYP2C9) small molecule antagonists: luciferase reporter qHTS assay (AID 1671198; further: nearly all actives have a fitted effect of over 50% in size)). Conditions: P450-Glo CYP2C9 enzyme assay, luciferin luminescence; series mostly up to 115 µM; activity change, negative = inhibition: at the top concentration.
Summary of the method: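 CYP2C9 activity was measured with a P450-Glo proluciferin substrate. Enzyme–substrate mix was held with compound for 10 min at room temperature, then NADPH regeneration solution was added for 1 h at 37C. Luciferin product was read as luminescence.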
On the % scale 0 is the no-effect control and ±100 the full control effect; potency means the concentration at half of the fitted maximal effect.

Row | SMILES | activity change, negative = inhibition | Potency
1 | CC1CCC(C(C)(C)O)CC1 (configuration not stated) | inactive: 4.73% | 
2 | C[C@H]1C[C@@H]2[C@H]([C@@H](O)C[C@@]3(C)[C@H]2CC[C@]3(O)C(=O)CO)[C@@]2(C)C=CC(=O)C=C12 |  | inconclusive: 39.9 µM [inhibitor, partial curve] and inconclusive: 12.3 µM [inhibitor, partial curve, poor fit]
3 | N=c1nc(N2CCCCC2)cc(N)n1O | inactive: 1.21% [at 53 µM] | 
4 | O=Cc1ccccc1S(=O)(=O)O |  | inconclusive: 79.6 µM [inhibitor, single point]
5 | CCOC(=O)NCCC[Si](OCC)(OCC)OCC | inactive: -6.16% | 
6 | CC(C)c1cc2c(cc1S(=O)(=O)O)[C@@]1(C)CCC[C@@](C)(C(=O)O)[C@@H]1CC2 | inactive: -9.88% [at 53 µM] | 
7 | CC(C)OP(=O)(CP(=O)(OC(C)C)OC(C)C)OC(C)C |  | inconclusive: 63.3 µM [inhibitor, partial curve, poor fit]
8 | Nc1ccccc1S(=O)(=O)O |  | inconclusive: 61.9 µM [inhibitor, partial curve]
9 | C=C1CC[C@H]2C[C@@H]1C2(C)C |  | inconclusive: 79.6 µM [inhibitor]
10 | O=C1CC2(CCCC2)CC(=O)N1CCNCC1COc2ccccc2O1 (configuration not stated) | inactive: -23.9% [at 53 µM] | 
11 | CC(=O)c1ccccc1O |  | inconclusive: 89.4 µM [inhibitor, partial curve, poor fit]
12 | C=CCc1ccc(O)c(OC)c1 |  | inconclusive: 79.2 µM [inhibitor] and inconclusive: 71 µM [inhibitor, partial curve] and inconclusive: 17.4 µM [inhibitor, partial curve]
